Binding data for five molecules are collected here from article PMC7190567.

The target of the test is T1, Caveolin-1 (wild type) (dog) (UniProt P33724).
T1 sequence: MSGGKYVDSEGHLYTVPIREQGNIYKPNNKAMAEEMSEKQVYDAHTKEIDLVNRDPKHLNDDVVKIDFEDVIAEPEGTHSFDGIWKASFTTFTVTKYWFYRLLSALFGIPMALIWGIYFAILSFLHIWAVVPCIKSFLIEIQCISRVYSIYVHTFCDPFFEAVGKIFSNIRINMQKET
In words: affinity purification with mass spectrometry; CAV1 immunoprecipitated with polyclonal anti-CAV1 on Dynabeads from B16F10(CAV1) cells (no E-cadherin); trypsin digest, nano-ESI-MS/MS on an LTQ ion trap, Mascot; only proteins unique to this sample listed.

No constants are given. Whether binding was seen depends on the method and setting. In cells and extracts the contact can be indirect. Here binding means that the protein was enriched with, or labelled near, the bait; the list need not be complete.

B1: Eukaryotic translation initiation factor 4E type 1B (protein, UniProt Q3UTA9 1-244)
chain: MNKVEGGGHKEEVVVKEKEVVKEKPSEATAEGVQAGEAKDLPGSLKTQRRKAHREHPPEVLSKLHPLQYRWVLWFFKNDRSRAWQDNLQLVTKFNTVEDFWAVYSHIKLASKLSSGCDYALFKEGILPMWEDNRNKQGGRWLLSIDKQLRHFELDRLWLETLLCLVGNCFEEYSREVCGAVVNIRTKRDKIALWTSEAEDKAGVMQIGQIYKERLGISTKTIIGYQAHADTAAKSNNLANKFVV
With B1, the binding entry is recorded as “binds”.

B2: Zinc finger protein 800 (protein, UniProt Q0VEE6 1-662)
chain: MPLRDKYCQTDHHHHGCCEPVYILEPGDPPLLQQPVQTSKSGIQQIIECFRSGTKQLKHILLKDVDTIFECKLCRSLFRGLPNLITHKKFYCPPSLQMDDNLPDVNDKQSQAISDLLEAIYPRVDKREYIIKLEPIETNQNAVFQYISRTDNPAEVTESSSTPEQTEVQIQETSSEQLKAVPDADTEVEEAIEPPSIETVVDEAAAPTEEQPQESQADLETSDSSDLGHQLICCLCRKEFNSRRGVRRHIRKVHKKKMEELKKYIETRKTPNQSSKGRSKSVLVSLSRSCPVCCKSFATKANVRRHFDEVHRGLRRDSITPDIATKPGQPLFLDSASPKKSFKTRKQKSSKAEYNLTACKCLLCKRKYSSQIMLKRHMQIVHKITLSGANSKREKGPNNTANSSEVKVELADSVESSPPSITHSPQNELKGTNHSNEKKNTPATQKNKVKQDSESPKSASPSAAGGQQKTRKPKLSAGFDFKQLYCKLCKRQFTSKQNLTKHIELHTDGNNIYVKFYKCPLCTYETRRKRDVIRHITVVHKKSSRYLGKITASLEIRAIKKPIDFVLNKVAKRGPSREEAKHNDSKQDGTSNSPSKKYEVADVGIEVKVTKNFSLHRCNKCGKAFAKKTYLEHHKKTHKANATNSPEGNKTKGRSTRSKALV
On to B2, for which the binding result is recorded as “binds”.

B3: Acetylcholinesterase collagenic tail peptide (protein, UniProt O35348 30-457)
chain: VVPISAALPGLDQKKRGSHKACCLLMPPPPPLFPPPFFRGSRSPLLSPDMKNLLELEASPSPCIQGSLGSPGPPGPQGPPGLPGKTGPKGEKGDLGRPGRKGRPGPPGVPGMPGPVGWPGPEGPRGEKGDLGMMGLPGSRGPMGSKGFPGSRGEKGSRGERGDLGPKGEKGFPGFPGMLGQKGEMGPKGESGLAGHRGPTGRPGKRGKQGQKGDSGIMGPPGKPGPSGQPGRQGPPGPPGPPSAGQLVMGLKGERGFPGPPGRCLCGPPVNVNNPSYGDSMYGRGSPRVPAIFVVNNQEELERLNTQNAIAFRRDQRSLYFKDSLGWLPIQLTPFYPVGYTVKQPGTCGDGVLQPGEECDDGNPDVSDGCIDCHRAYCGDGYRHQGVEDCDGSDFGYLTCETYLPGSYGDLRCTQYCSIDSTPCRYFT
Consider B3, for which the binding entry is “binds”.

B4: mRNA-decapping enzyme 1B (protein, UniProt Q3U564 1-578)
chain: MAAAAAGGLPGKGHDISLAALRRHDPYISRIVDVASQVALYTFGHRANEWEKTGVEGTLFVYTRSASPKHGFTIMNRLSMENRTEPITKDLDFQLQNPFLLYRNGTLSIYGIWFYDKEECQRIAKLMKNLTQSEQLKACHGAGSSPVTLSSGEGQEVDILQMLTKAKDEYTKCKTCSEPKQMTNSSAICDNPKLIKPVPVRPSSSQRLQGPAPSKTSDPEPQHLSLTALFGKQDKAPCQETVKPSRTFAHHHHHHHQQQQETRPVHHGVACSLSCEEPRKLSLPVEKQLCPAIQKLMLGSPGLHPLPQHPEQWSCKSGSPSPAGGILPGPVQLGSPWNGRVAHCTQSTCRGHKLLEQLQGAPGAVHKYNPCAPTGPAVATQVAPGQSVAQSQLVYFSGPLQPPAPGHQALRKEQGALPAQAVSLSGSQESSPTVLPTQELLRKLQVVHQEQQAAPRPALAARFPVSAQGSGTEKPLEAWVSKTASMEKQAPLLQSTCAPLRETDNGLMALGGQELPAASSNLLLPLQNWESSTVASRPLTRLQLQEALLNLIQNDDNFLSIIYEAYLFSVTQAAMRTT
Consider B4, for which the binding result was “binds”.

B5: Magi3, Membrane associated guanylate kinse, WW and PDZ domain containing 3 (protein, UniProt Q9EQJ9 1-1476)
chain: MSKTLKKKKHWLSKVQECAVSWAGPPGDLGAEIRGGAERGEFPYLGRLRDEAGGGGGTCCVVSGKAPSPGDVLLEVNGTPVSGLTNRDTLAVIRHFREPIRLKTVKPGKVINKDLRHYLSLQFQKGSIDHKLQQVIRDNLYLRTIPCTTRAPRDGEVPGVDYNFISVEQFKALEESGALLESGTYDGNFYGTPKPPAEPSPFQPDPVDQVLFDNEFDTESQRKRTTSVSKMERMDSSLPEEEEDEDKEAVNGSGSMETREMHSETSDCWMKTVPSYNQTNSSMDFRNYMMRDENLEPLPKNWEMAYTDTGMIYFIDHNTKTTTWLDPRLCKKAKAPEDCEDGELPYGWEKIEDPQYGTYYVDHLNQKTQFENPVEEAKRKKQLGQAEIHSAKTDVERAHFTRDPSQLKGVLVRASLKKSTMGFGFTIIGGDRPDEFLQVKNVLKDGPAAQDGKIAPGDVIVDINGNCVLGHTHADVVQMFQLVPVNQYVNLTLCRGYPLPDDSEDPVVDIVAATPVINGQSLTKGETCMNTQDFKLGAMVLDQNGKSGQILASDRLNGPSESSEQRASLASSGSSQPELVTIPLIKGPKGFGFAIADSPTGQKVKMILDSQWCQGLQKGDIIKEIYHQNVQNLTHLQVVEVLKQFPVGADVPLLILRGGPCSPTKTAKTKTDTKENSGSLETINEPIPQPMPFPPSIIRSGSPKLDPSEVYLKSKTLYEDKPPNTKDLDVFLRKQESGFGFRVLGGDGPDQSIYIGAIIPLGAAEKDGRLRAADELMCIDGIPVKGKSHKQVLDLMTTAARNGHVLLTVRRKIFYGEKQPEDESHQAFSQNGSPRLNRAELPTRSAPQEAYDVTLQRKENEGFGFVILTSKSKPPPGVIPHKIGRVIDGSPADRCGGLKVGDHISAVNGQSIVDLSHDNIVQLIKDAGVTVTLTVVAEEEHHGPPSGTNSARQSPALQHRPMGQAQANHIPGDRIALEGEIGRDVCSSYRHSWSDHKHLAQPDTAVISVVGSRHNQSLGCYPVELERGPRGFGFSLRGGKEYNMGLFILRLAEDGPAIKDGRIHVGDQIVEINGEPTQGITHTRAIELIQAGGNKVLLLLRPGTGLIPDHGDWDTNSPSSSNVIYDEQPPPLPSSHSASTFEESHVPATEDSLTRVQICEKAEELKDTVQEKKSTLNGSQPEMKYQSVHKTMSKKDPPRGSGHGEKSRLKGENGVTRRGRSASPKKSVNRHSEEHLEKIPRPLKSDPKEKSRDRSLSPRKGESKGRLTIKAGSGQDPYRKDRGRSSSPKKQQKIGGNSLSNTEGKLSEAGSRRAAGHPRDSTEQLPDGREKSGVSRKDLKQSQPGKTRTKSPEKKSSKVDETSLPSKKTSSTAGRVVSEKEKGKKPTAGETSRETVEHTQISAKQLKQEAQEKTALGNADDHKGRESEVTDRCRERAGCTPQSSSLVKKAPITPGPWRVPRANKVTGTTGMADKQL
B5: the binding entry was “binds”.
